Source: the supplement of paper PMC3334620
The full ranking holds about 33,000 sequences; the median of “E-score (-0.5 to 0.5)” is about -0.0059, and the highest 2% start at about 0.26. The list shows a part of the results.

Target: T1, Cin5 (UniProt P40917)
T1 sequence: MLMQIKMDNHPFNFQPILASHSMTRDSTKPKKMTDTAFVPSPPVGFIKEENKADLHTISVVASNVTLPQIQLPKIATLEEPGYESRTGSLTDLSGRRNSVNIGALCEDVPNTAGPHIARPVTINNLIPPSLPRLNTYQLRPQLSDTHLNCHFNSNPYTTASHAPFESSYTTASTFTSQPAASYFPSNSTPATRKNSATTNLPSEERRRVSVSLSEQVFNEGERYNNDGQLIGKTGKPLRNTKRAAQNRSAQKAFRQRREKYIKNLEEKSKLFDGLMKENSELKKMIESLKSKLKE
Assay: PBM E-score (8-mer binding enrichment) (E-score (-0.5 to 0.5)); higher = stronger / more preferred TF binding
Settings: protein concentration: 100 nM; construct: GST-full length
Protocol: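 Universal 'all 10-mer' protein binding microarrays (Agilent AMADID 015681) probed with GST-tagged S. cerevisiae TFs (full-length or DBD) made by in vitro transcription/translation (PURExpress), about 100-200 nM. Bound TF was detected with fluorescent anti-GST. Each ungapped 8-mer (which stands for itself and its reverse complement) is scored by the PBM enrichment score (E-score), a modified Wilcoxon-Mann-Whitney statistic from -0.5 to +0.5, computed with the Universal PBM Analysis Suite. Scale: above 0.35 generally sequence-specific binding.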

Row | Sequence | PBM E-score
1 | CCTGGAAA | -0.0619
2 | AAACGGCC | -0.123
3 | CTCAGCAC | -0.0366
4 | CACCAGCA | -0.0848
5 | ACGCAACA | 0.00103
6 | GATCACCA | 0.0841
7 | CCGGGGTC | -0.18
8 | ATCAAGGC | 0.06
9 | ATGGCTGG | -0.137
10 | ACATCCGT | 0.164
11 | GATCAATC | -0.016
12 | GCCAACGC | -0.149
13 | AAACAGGA | 0.0198
14 | CAGCGCTG | 0.0994
15 | CCGTAGGA | -0.224
16 | CCCTTTAG | -0.263
17 | CTACTAGA | 0.0506
18 | ATCTCTCC | -0.0642
19 | TAATGCAA | -0.00491
20 | AAGACGAA | 0.104
21 | CAAATATG | 0.117
22 | CTAACCAG | -0.043
23 | ATACGAAG | 0.0767
24 | AAATAAAC | 0.187
25 | CCGACAGC | -0.26

Row | Sequence | PBM E-score
26 | AAGTCTGT | 0.0322
27 | ACCGTTTC | 0.00077
28 | CTACCGTA | 0.0364
29 | GACCGCCC | -0.161
30 | CGGGTTGC | -0.0157
31 | CTACTCCC | 0.0928
32 | ATGATATA | 0.166
33 | AGGTGTAT | 0.158
34 | ACGGTTAC | 0.0476
35 | ATAGCACA | 0.0731
36 | CTTGGGAC | -0.0756
37 | CGTAAACG | -0.0605
38 | AGAGTCTC | -0.0361
39 | CCGCAATC | 0.101
40 | AGGGGATA | 0.107
41 | CCTTAACA | -0.0543
42 | ATTTAGTG | 0.199
43 | TAATAGCA | 0.0415
44 | ATTTCTTA | 0.092
45 | GCCCCCGA | -0.396
46 | ACTGTTGG | -0.0947
47 | AGACGAAT | 0.0391
48 | AAGCATCG | -0.122
49 | ATCTTCCG | 0.108
50 | ACCGATCT | -0.0633

Row | Sequence | PBM E-score
51 | CGATGAAG | 0.0255
52 | ATACAAAT | 0.22
53 | GTTGATAA | 0.193
54 | GGCCTCCA | -0.26
55 | ACGGCTTC | -0.0049
56 | GAGAATGA | 0.182
57 | CGACCACG | 0.0142
58 | CTGCAGCC | -0.106
59 | GTCCGCGA | -0.0143
60 | ATCGCCGC | 0.0528
61 | AAGGTGCC | -0.125
62 | AGTATGGC | 0.00094
63 | CTGACAAC | 0.0895
64 | ATCAGGAC | -0.0181
65 | AGGTTTCG | 0.0224
66 | AAGCTGAA | 0.128
67 | ATCGAGTG | 0.164
68 | ACTTGCCG | -0.106
69 | GGAGCACC | -0.257
70 | GTGTGACA | -0.0861
71 | GGACGGCA | -0.128
72 | CGGATCGC | 0.017
73 | AACTTTCT | 0.0623
74 | ATTTCTCC | 0.0831
75 | ATAGTAGC | 0.198

Row | Sequence | PBM E-score
76 | AATGCGCC | 0.0821
77 | CCATTTTA | 0.191
78 | GGAAGGCA | -0.123
79 | CGTGGCCA | -0.208
80 | ACGGTAAT | -0.0579
81 | AGTGATTC | -0.0118
82 | ACATCAGA | 0.136
83 | AAAGGCCC | -0.104
84 | AGCATTCA | 0.0341
85 | GATGCATC | 0.106
86 | ATCCATAA | 0.219
87 | GGTCACAA | -0.0658
88 | GTAGAGTA | 0.0414
89 | GTCCCAAC | -0.125
90 | GACTAATC | 0.18
91 | ACTAATTC | 0.204
92 | CAAGGTGC | -0.127
93 | AACCTGGC | -0.144
94 | CAGTGAAG | -0.0991
95 | CGAGATGA | 0.0736
96 | CCCCTGGC | -0.309
97 | ATCTTGGG | 0.13
98 | AAACGCCG | 0.131
99 | AGTCTAAC | -0.16
100 | ACCTCTGA | 0.0292

Row | Sequence | PBM E-score
101 | GAGAGGGC | -0.412
102 | ACCGAATG | -0.0712
103 | GCAACACA | 0.0801
104 | AACCATGT | 0.0944
105 | CTCGCCAC | -0.0233
106 | CCCAAGGA | -0.148
107 | CATTTAAC | 0.0886
108 | GTATCGAC | 0.047
109 | ATTCACCG | 0.172
110 | CAACGGGG | -0.17
111 | CCGTCAAG | -0.0292
112 | AACAATAA | 0.257
113 | ATCACCAT | 0.197
114 | ATCACATC | 0.117
115 | AATCTGTA | 0.224
116 | GTCCTACA | 0.0317
117 | GGACGTTA | 0.0206
118 | ACTTGATC | 0.111
119 | AGCATAAG | 0.16
120 | AGACTGCT | -0.00887
121 | AGATCTGC | 0.0378
122 | GCGTTCCC | -0.174
123 | GGTATCCA | 0.0407
124 | AAACATCT | -0.0629
125 | ACATCCTG | 0.205

Row | Sequence | PBM E-score
126 | AACTAGCA | 0.118
127 | GTTGGTCA | 0.166
128 | AGTAATCG | 0.262
129 | AGCATTGC | -0.0653
130 | ACGTTTCA | 0.00593
131 | GGGTACAA | -0.0689
132 | CGGCAAAG | -0.00808
133 | CGACCGGC | -0.0722
134 | ACCATCAC | 0.0626
135 | GCGAACTA | 0.137
136 | AAAATCCA | 0.246
137 | AATAGGCG | 0.111
138 | GACTACCC | -0.127
139 | CGCCTACC | -0.0803
140 | AACTCTGT | 0.0107
141 | GCGTAAGA | 0.113
142 | AGCCTGTA | -0.102
143 | AGACGTGC | -0.16
144 | AACGGAGG | -0.138
145 | ATGAGAGC | -0.0368
146 | GTATGACA | 0.172
147 | CTTCCGCC | -0.183
148 | ATCATTGA | 0.178
149 | GAACTTAA | -0.0267
150 | AGGCACGC | -0.0834

From entry 10 as far as 14, as listed above:
Row | Sequence | PBM E-score
10 | ACATCCGT | 0.164
11 | GATCAATC | -0.016
12 | GCCAACGC | -0.149
13 | AAACAGGA | 0.0198
14 | CAGCGCTG | 0.0994

The list goes on:

Row | Sequence | PBM E-score
151 | TTAACGAA | 0.145
152 | GTTTGCTA | 0.0646
153 | CCACTATC | -0.0477
154 | GTAACATA | 0.0684
155 | CTTGTAGA | -0.282
156 | CAGTTTCA | 0.0521
157 | CGTCTATC | -0.0488
158 | CGAACTAG | 0.0477
159 | GTACCCAC | -0.0302
160 | CATAGTAC | 0.0648
161 | GAACCCTC | -0.173
162 | GGTTCCGA | 0.116
163 | TTCCGCAA | 0.0528
164 | AGGCGCAA | 0.113
165 | ATCCGAAG | 0.073
166 | ATATCCCG | 0.166
167 | CCCGGACG | -0.241
168 | ATCACCAA | 0.174
169 | AGACCGCC | -0.0364
170 | CCCAGAGG | -0.279
171 | CGCATTTA | 0.131
172 | ATCCCACC | 0.194
173 | TTGCGCAA | 0.119
174 | TAGGCGGA | 0.125
175 | AGCAGTGC | -0.177

Row | Sequence | PBM E-score
176 | CGGTGGGC | -0.176
177 | CAACCTTG | -0.0155
178 | AATTTACT | 0.207
179 | ACATCGAC | -0.0518
180 | TAGGGTCA | 0.00684
181 | AACTTCGA | 0.0793
182 | CTCAGATA | 0.166
183 | AGAACGTG | 0.0822
184 | AATAACAT | 0.204
185 | CAGGCGCA | -0.135
186 | CTTATTGC | 0.0948
187 | AAGTATGT | 0.0996
188 | GATTAGCC | 0.0514
189 | CAATGCCG | 0.0476
190 | TATTCTCA | 0.0889
191 | AAATACGG | 0.0126
192 | CTTCGACC | -0.112
193 | AATTTGCC | 0.022
194 | ATACCAAT | 0.114
195 | ATAAGAAC | 0.31
196 | CACATGAA | -0.0322
197 | TCTTCGAA | 0.0305
198 | CTAAGAAC | 0.179
199 | ATCAGCGG | 0.141
200 | AACTTATA | 0.18

Row | Sequence | PBM E-score
201 | ACGAGTAG | 0.0382
202 | CAGCACGG | -0.114
203 | CCCTAGTC | -0.201
204 | AGGCTCTC | -0.33
205 | CCACCGTA | -0.049
206 | CTGACGCA | -0.102
207 | GAAGGCTC | -0.269
208 | CCGTGACC | -0.187
209 | CTGTGCAA | -0.0319
210 | AACGGTGT | 0.0106
211 | GCAGTGAA | 0.191
212 | CAGTACTC | -0.147
213 | CACACATA | -0.0176
214 | CCTGAGCG | -0.106
215 | TACGTCAA | 0.158
216 | AACCCAGA | -0.0895
217 | ATTCCTTA | -0.00725
218 | ACCATTAA | 0.203
219 | AACTAATG | 0.219

4 records drawn at random from the list so far, as already listed:
Row | Sequence | PBM E-score
212 | CAGTACTC | -0.147
216 | AACCCAGA | -0.0895
206 | CTGACGCA | -0.102
214 | CCTGAGCG | -0.106
